Results published in the supplement of paper PMC4683952.
Structures can show the parent of a compound that is named as a salt. In all, about 1,200 compounds went through this assay and about 50 (4%) showed activity. No stated cut-off is given here; in the data, all actives reach 1.3 or more but so do some inactives. Some of the results follow.

What follows are molecules tested on Lgr5 (MarsCy1-Lgr5-EGFP, U2OS) (assay: cell-surface Lgr5 expression (SCi1 fluorescence, background-subtracted) relative to WT DMSO (fold of DMSO control); higher = more Lgr5 at the plasma membrane, active = hit call of the paper). Conditions: U2OS MarsCy1-Lgr5-EGFP stable; treatment time: overnight; 16 µM; library: Johns Hopkins Clinical Compound Library.
In the case of `CN1C(=O)OC(C)(C)C1=O` [Trimethadione (3,5,5,trimethyloxazol-idine,2,4 dione)], the “cell-surface Lgr5 expression” value is reported as inactive: 0.85. `CCCC(CCC)C(=O)O[C@H]1C[C@H]2CC[C@@H](C1)[N+]2(C)C` [Anisotropine methylbromide] was tested, and the “cell-surface Lgr5 expression” value was inactive: 1.18. In the case of `NCCNCCNCCN` [Trientine (Triethylenetetramine)], the “cell-surface Lgr5 expression” value is reported as inactive: 0.888. With `O=C(CCc1ccc(O)cc1)c1c(O)cc(O)cc1O[C@@H]1OC(CO)[C@@H](O)[C@@H](O)C1O` (some centres not stated) [Phloridzin] the “cell-surface Lgr5 expression” value was inactive: 0.896. With `COc1c(C)c2c(c(O)c1C/C=C(\C)CCC(=O)O)C(=O)OC2` [Mycophenolic acid] the “cell-surface Lgr5 expression” value was inactive: 0.89. For `NS(=O)(=O)c1cc(Cl)c(Cl)c(S(N)(=O)=O)c1` [Dichlorophenamide], the “cell-surface Lgr5 expression” value was inactive: 0.698. `Nc1ccc(C(=O)O)cc1` [4-Aminobenzoic acid, sodium salt,99%] was tested, and the “cell-surface Lgr5 expression” value was inactive: 0.905. `CCCCCC(=O)O[C@]1(C(C)=O)CC[C@H]2[C@@H]3CCC4=CC(=O)CC[C@]4(C)[C@H]3CC[C@@]21C` [Progesterone caproate (17alpha-hydroxyprogesterone)] was tested, and the “cell-surface Lgr5 expression” value was inactive: 1.05. In the case of `CCCCCC(=O)O[C@]1(C(C)=O)CC[C@H]2[C@@H]3CCC4=CC(=O)CC[C@]4(C)[C@H]3CC[C@@]21C`, the “cell-surface Lgr5 expression” value is reported as inactive: 1.11. In the case of `O=C(O[C@@H]1Cc2c(O)cc(O)cc2O[C@@H]1c1ccc(O)c(O)c1)c1cc(O)c(O)c(O)c1` [Epicatechin gallate (-)], the “cell-surface Lgr5 expression” value is reported as inactive: 1.14. For `CNCCCC12CCC(c3ccccc31)c1ccccc12` [Maprotiline], the “cell-surface Lgr5 expression” value was active: 1.32. In the case of `Cc1coc2c1C(=O)C(=O)c1c-2ccc2c1CCCC2(C)C` [Tanshinone IIA], the “cell-surface Lgr5 expression” value is reported as inactive: 0.863. For `CC1(C)O[C@@H]2C[C@H]3[C@@H]4CCC5=CC(=O)CC[C@]5(C)[C@@]4(F)[C@@H](O)C[C@]3(C)[C@]2(C(=O)CCl)O1` [Halcinonide], the “cell-surface Lgr5 expression” value was active: 1.71. `O=C1C(CC[S+]([O-])c2ccccc2)C(=O)N(c2ccccc2)N1c1ccccc1` (racemic) [Sulfinpyrazone (+-)] was tested, and the “cell-surface Lgr5 expression” value was inactive: 1.1. In the case of `CC(=O)O[C@H]1C[C@@H]2CC[C@@H]3[C@H](CC[C@@]4(C)[C@H]3C[C@H]([N+]3(C)CCCCC3)[C@@H]4OC(C)=O)[C@@]2(C)C[C@@H]1N1CCCCC1` [Vecuronium bromide], the “cell-surface Lgr5 expression” value is reported as inactive: 0.878. In the case of `C#C[C@]1(O)CC[C@H]2[C@@H]3CCc4cc(O)ccc4[C@H]3CC[C@@]21C` [Ethinyl Estradiol (17α-Ethynylestradiol)], the “cell-surface Lgr5 expression” value is reported as inactive: 0.851. For `COc1ncnc(NS(=O)(=O)c2ccc(N)cc2)c1OC` [Sulfadoxine], the “cell-surface Lgr5 expression” value was inactive: 0.843. With `O=C(Oc1ccccc1)c1ccccc1O` [Phenyl salicylate] the “cell-surface Lgr5 expression” value was inactive: 1.11. `COc1c(N2C[C@@H]3CCCN[C@@H]3C2)c(F)cc2c(=O)c(C(=O)O)cn(C3CC3)c12` [Moxifloxacin HCl] was tested, and the “cell-surface Lgr5 expression” value was inactive: 0.895. For `Nc1nc2c(ncn2COCCO)c(=O)[nH]1` [Acyclovir (Acycloguanosine)], the “cell-surface Lgr5 expression” value was inactive: 1.38. For `CCCCCN(CCCCC)C(=O)C(CCC(=O)O)NC(=O)c1ccc(Cl)c(Cl)c1` (configuration not stated) [Lorglumide sodium salt], the “cell-surface Lgr5 expression” value was inactive: 1.05. `CCCCCN(CCCCC)C(=O)C(CCC(=O)O)NC(=O)c1ccc(Cl)c(Cl)c1` (configuration not stated) [Lorglumide] was tested, and the “cell-surface Lgr5 expression” value was inactive: 1.13. `COc1ccc2[nH]c([S@@+]([O-])Cc3ncc(C)c(OC)c3C)nc2c1` [Esomeprazole] was tested, and the “cell-surface Lgr5 expression” value was inactive: 0.751. With `CCCCC(CC)COC(=O)C=Cc1ccc(OC)cc1` (configuration not stated) the “cell-surface Lgr5 expression” value was inactive: 0.676. For `Cc1c(C2(c3cc(C(C)C)c(O)c(Br)c3C)OS(=O)(=O)c3ccccc32)cc(C(C)C)c(O)c1Br` [Bromthymol blue, sodium salt], the “cell-surface Lgr5 expression” value was inactive: 1.16. In the case of `O=NN(CCCl)C(=O)NCCCl` [Carmustine], the “cell-surface Lgr5 expression” value is reported as inactive: 1.24. For `CCOC(=O)c1ncn2c1CN(C)C(=O)c1cc(F)ccc1-2` [Flumazenil], the “cell-surface Lgr5 expression” value was inactive: 1.12. With `O=C[C@H](O)[C@@H](O)[C@H](O)[C@H](O)C(=O)[O-].[Na+]` [Sodium glucuronate (D-Glucuronic acid)] the “cell-surface Lgr5 expression” value was active: 1.32. `CC(=O)Nc1ccc(/C=N/NC(N)=S)cc1` [Thiacetazone (Amithiozone)] was tested, and the “cell-surface Lgr5 expression” value was inactive: 1.19. With `N[C@@H](CSCC(=O)O)C(=O)O` [Carbocysteine (S-carboxymethyl-L-cysteine)] the “cell-surface Lgr5 expression” value was inactive: 0.812. `CC(C(=O)O)c1cccc(C(=O)c2ccccc2)c1` (configuration not stated) [Ketoprofen] was tested, and the “cell-surface Lgr5 expression” value was inactive: 0.899. For `CC(C)(C)C(=O)C(Oc1ccc(Cl)cc1)n1ccnc1` (configuration not stated) [Climbazole], the “cell-surface Lgr5 expression” value was inactive: 1.04. With `NCCCC(N)(C(=O)O)C(F)F` (racemic) the “cell-surface Lgr5 expression” value was inactive: 1.18. With `NCCCC(N)(C(=O)O)C(F)F` (racemic) [Eflornithine hydrochloride] the “cell-surface Lgr5 expression” value was inactive: 0.627. In the case of `O=C1CN(/N=C/c2ccc([N+](=O)[O-])o2)C(=O)N1` [Nitrofurantoin], the “cell-surface Lgr5 expression” value is reported as inactive: 0.908. In the case of `CC1=C(CC(=O)O)c2cc(F)ccc2/C1=C\c1ccc(S(C)(=O)=O)cc1` [Sulindac sulfone], the “cell-surface Lgr5 expression” value is reported as inactive: 0.73. In the case of `CC(=O)[C@@]1(O)CC[C@H]2[C@@H]3C[C@H](C)C4=CC(=O)CC[C@]4(C)[C@H]3CC[C@@]21C` [6α-Methyl-17α-hydroxy-progesterone (Medroxyprogesterone)], the “cell-surface Lgr5 expression” value is reported as inactive: 1.45. With `C[C@H](N)[C@H](O)c1cccc(O)c1` [Metaraminol] the “cell-surface Lgr5 expression” value was inactive: 1.19. In the case of `CC1(C)S[C@@H]2[C@H](NC(=O)C(C(=O)O)c3ccccc3)C(=O)N2[C@H]1C(=O)O` (some centres not stated) [Carbenicillin], the “cell-surface Lgr5 expression” value is reported as inactive: 0.933. In the case of `CC1(O)CCC(C(C)(C)O)CC1` (configuration not stated) [Terpin (p-Menthane-1,8-diol monohydrate)], the “cell-surface Lgr5 expression” value is reported as inactive: 1.11. `CC1(C)S[C@@H]2[C@H](NC(=O)[C@H](C(=O)O)c3ccsc3)C(=O)N2[C@H]1C(=O)O` [Ticarcillin] was tested, and the “cell-surface Lgr5 expression” value was inactive: 1.09. In the case of `NC[C@H]1O[C@H](O[C@H]2[C@H](O)[C@@H](O[C@H]3O[C@H](CO)[C@@H](O)[C@H](N)[C@H]3O)[C@H](N)C[C@@H]2N)[C@H](O)[C@@H](O)[C@@H]1O` [Kanamycin], the “cell-surface Lgr5 expression” value is reported as inactive: 0.785.
